Experimental findings from patent publication US20250011423A1 are described below.

Chains of the proteins cited; added tags and fusions are not shown. Lines headed by an entry give the natural chain unless they say otherwise; changes in a name come on top.
UniProt Q86YW5: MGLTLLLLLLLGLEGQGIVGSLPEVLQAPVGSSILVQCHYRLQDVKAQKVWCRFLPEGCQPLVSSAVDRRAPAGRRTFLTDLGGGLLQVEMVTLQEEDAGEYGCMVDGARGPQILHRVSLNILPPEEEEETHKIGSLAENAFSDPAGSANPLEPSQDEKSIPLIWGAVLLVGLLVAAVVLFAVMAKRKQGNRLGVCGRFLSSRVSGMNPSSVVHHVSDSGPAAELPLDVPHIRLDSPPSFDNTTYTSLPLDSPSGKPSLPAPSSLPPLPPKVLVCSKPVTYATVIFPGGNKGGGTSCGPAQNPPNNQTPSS

These are yes or no findings as the source states them, for the method shown. Some results given as binding are weak or reduced against the parent protein; the word gives no strength.

Experiment [1] has as its target recombinant I-domain of CD11b (Homo sapiens (Human)) (UniProt P11215). The experiment can be described thus: solid phase binding assay, I-domain coated, detection with MAB2394 (FIG. 2).
Experiment [2] has the same target. The experiment can be described thus: solid phase binding assay (legend of FIG. 2).

As for “human TREML1 ECD (from UniProt Q86YW5 16-162) (ligand)”, the binding entry in experiment [1] and in experiment [2] was “binds” each time.
